{"sequences": {"note": "The chains behind the UniProt entries cited, without tags or fusion partners. Where a name states a change or a piece, a line headed by the entry shows the natural chain unless it says otherwise. Residues count along the entry.", "UniProt P20701": "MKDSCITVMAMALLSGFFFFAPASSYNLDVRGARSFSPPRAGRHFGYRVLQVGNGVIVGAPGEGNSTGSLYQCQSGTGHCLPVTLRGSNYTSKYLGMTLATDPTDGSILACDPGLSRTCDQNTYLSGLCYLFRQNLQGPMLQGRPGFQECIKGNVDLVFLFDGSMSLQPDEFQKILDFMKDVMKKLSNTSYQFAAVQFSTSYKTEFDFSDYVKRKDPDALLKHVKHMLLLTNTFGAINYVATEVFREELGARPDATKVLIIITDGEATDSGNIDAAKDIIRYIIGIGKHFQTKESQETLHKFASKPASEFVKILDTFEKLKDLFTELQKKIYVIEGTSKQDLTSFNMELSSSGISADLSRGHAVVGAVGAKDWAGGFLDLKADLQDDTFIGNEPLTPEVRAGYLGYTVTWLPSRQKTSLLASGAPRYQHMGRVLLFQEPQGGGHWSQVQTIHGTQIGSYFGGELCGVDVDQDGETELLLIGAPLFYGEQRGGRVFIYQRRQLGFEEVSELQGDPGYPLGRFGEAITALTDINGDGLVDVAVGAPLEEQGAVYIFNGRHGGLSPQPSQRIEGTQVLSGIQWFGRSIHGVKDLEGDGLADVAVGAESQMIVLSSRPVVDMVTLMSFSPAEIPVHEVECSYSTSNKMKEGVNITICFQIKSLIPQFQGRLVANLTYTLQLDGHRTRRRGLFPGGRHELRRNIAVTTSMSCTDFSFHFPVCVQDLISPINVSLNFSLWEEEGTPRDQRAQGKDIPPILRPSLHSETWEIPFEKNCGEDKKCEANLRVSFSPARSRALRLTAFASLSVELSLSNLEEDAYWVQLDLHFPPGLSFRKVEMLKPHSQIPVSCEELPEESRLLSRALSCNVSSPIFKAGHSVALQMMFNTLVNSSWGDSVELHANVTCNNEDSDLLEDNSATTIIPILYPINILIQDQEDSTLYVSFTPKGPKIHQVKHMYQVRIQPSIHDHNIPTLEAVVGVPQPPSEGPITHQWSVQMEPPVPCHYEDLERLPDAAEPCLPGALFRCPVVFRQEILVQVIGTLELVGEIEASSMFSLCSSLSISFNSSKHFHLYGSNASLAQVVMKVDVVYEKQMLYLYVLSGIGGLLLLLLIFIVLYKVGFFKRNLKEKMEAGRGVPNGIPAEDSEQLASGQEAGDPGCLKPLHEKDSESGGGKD", "UniProt P05107": "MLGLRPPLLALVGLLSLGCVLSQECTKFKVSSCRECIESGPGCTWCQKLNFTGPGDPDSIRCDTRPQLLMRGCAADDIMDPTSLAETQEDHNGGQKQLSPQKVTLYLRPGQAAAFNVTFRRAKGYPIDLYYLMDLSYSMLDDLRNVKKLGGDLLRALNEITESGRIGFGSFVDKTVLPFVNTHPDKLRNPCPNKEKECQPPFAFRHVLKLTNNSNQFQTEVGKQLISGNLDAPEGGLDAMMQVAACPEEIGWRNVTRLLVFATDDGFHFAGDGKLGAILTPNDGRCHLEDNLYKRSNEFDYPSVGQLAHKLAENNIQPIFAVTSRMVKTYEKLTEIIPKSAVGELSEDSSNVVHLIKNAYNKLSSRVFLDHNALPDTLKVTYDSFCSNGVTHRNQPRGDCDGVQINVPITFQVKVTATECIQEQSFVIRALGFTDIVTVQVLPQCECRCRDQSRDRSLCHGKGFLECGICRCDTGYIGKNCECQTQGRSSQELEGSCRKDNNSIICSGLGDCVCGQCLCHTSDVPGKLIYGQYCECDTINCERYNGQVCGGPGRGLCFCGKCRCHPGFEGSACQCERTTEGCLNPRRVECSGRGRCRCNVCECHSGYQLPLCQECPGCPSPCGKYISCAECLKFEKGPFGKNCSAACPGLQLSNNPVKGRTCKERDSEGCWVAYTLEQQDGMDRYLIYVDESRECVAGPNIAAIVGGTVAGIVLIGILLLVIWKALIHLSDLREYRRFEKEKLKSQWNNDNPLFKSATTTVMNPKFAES", "UniProt P07996, residues 19-1170": "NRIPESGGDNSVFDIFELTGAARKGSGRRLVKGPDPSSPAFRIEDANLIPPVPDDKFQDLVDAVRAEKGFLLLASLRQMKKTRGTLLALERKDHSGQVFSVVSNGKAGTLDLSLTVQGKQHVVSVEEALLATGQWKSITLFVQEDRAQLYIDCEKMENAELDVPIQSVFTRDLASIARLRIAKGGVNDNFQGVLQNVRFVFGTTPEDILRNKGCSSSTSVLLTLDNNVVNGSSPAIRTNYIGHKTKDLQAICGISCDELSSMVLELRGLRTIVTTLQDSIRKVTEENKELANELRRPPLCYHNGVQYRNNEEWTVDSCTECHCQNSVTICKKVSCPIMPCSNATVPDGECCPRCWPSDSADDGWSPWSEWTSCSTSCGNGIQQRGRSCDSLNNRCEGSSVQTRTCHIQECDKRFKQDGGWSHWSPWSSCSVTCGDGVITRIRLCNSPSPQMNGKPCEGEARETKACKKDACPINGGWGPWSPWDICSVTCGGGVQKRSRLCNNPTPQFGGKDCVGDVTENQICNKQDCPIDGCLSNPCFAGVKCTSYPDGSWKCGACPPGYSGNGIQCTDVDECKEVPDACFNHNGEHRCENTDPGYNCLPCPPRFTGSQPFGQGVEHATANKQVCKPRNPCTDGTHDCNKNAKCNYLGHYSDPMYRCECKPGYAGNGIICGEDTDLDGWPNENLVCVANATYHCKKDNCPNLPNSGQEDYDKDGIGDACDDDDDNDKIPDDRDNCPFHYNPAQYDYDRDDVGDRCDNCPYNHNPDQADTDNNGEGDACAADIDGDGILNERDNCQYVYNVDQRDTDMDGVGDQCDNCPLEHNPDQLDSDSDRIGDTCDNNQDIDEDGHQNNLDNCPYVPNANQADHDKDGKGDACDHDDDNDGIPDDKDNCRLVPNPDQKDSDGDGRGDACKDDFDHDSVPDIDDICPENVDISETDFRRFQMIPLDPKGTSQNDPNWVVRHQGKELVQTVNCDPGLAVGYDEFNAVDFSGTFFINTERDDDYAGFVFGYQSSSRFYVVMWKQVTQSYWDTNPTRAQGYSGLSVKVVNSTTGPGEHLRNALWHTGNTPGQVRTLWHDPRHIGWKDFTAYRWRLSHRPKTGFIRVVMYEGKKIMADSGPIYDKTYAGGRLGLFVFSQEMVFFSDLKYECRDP"}, "source": "paper PMC4758637", "target": "Lymphocyte function-associated antigen 1 (human (endogenous in monocyte-derived DCs and monocytes)) (UniProt P20701+P05107)", "assay": "co-IP; LFA-1 precipitated from the post nuclear supernatant of day 6 imDCs with SPV-L7 (anti-αL), mIgG1 coated beads as control IP; Western blot, non-reducing conditions; lysis buffer not told", "note": "These are yes or no findings as the source states them, for the method shown. In cells and extracts the contact can be indirect. Some entries that bind do so weakly or less than the wild type.", "data": [{"substance": "thrombospondin-1 (from UniProt P07996 19-1170)", "values": [{"measurement": "binding", "value": "binds"}]}]}
